Data published in paper PMC10761706.
Results are given in words; binding and its absence hold for the method and conditions named.

The chains behind the UniProt entries cited, without tags or fusion partners. Residues count along the entry.
UniProt P37173, residues 23-567: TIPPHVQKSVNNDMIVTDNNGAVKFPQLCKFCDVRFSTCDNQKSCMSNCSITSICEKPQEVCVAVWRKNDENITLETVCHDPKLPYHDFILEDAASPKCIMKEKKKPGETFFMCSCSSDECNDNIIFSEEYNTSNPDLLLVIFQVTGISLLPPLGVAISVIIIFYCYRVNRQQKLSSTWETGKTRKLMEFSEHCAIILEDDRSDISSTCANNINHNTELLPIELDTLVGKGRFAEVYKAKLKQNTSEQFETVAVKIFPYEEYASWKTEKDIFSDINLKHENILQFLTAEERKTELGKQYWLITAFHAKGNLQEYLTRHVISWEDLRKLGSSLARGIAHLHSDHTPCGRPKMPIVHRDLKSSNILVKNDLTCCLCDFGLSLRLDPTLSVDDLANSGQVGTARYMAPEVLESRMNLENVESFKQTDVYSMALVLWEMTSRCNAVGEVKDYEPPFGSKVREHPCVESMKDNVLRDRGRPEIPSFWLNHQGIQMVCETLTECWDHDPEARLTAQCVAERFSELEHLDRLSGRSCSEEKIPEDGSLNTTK
UniProt Q13705, residues 19-512: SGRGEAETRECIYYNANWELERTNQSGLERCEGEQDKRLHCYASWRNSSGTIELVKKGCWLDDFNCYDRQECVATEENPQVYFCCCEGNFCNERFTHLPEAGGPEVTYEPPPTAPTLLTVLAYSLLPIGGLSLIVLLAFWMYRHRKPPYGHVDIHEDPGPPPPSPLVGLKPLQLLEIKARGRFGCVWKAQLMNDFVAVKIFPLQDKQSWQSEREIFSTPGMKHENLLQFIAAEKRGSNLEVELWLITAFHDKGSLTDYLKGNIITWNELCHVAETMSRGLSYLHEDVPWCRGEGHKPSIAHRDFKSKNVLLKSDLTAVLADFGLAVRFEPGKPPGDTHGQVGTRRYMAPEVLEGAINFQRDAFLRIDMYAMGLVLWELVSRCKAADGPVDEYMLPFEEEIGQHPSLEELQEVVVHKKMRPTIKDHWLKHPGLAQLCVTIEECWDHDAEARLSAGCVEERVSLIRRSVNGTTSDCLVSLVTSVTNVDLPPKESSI

Molecular target: HA-TβRII (type II TGF-β receptor) (human) (UniProt P37173)
Test: patch/FRAP; live AML12 cells coexpressing the two epitope-tagged receptors; HA-TβRII patched and immobilised by a double layer of IgG (rabbit αHA IgG, Alexa 488-GαR IgG), Rf and D of the myc-tagged receptor (labelled by monovalent Fab') measured by FRAP at 15 °C in HBSS/HEPES/BSA; cells untreated, cholesterol-enriched (cholesterol-MβCD, 16 h) or with siRNA to endogenous TGFBR1; without or with 100 pM TGF-β1

- binding: no binding
Substance: myc-ACVR2B (activin type II receptor) (from UniProt Q13705 19-512)
